Values from PubChem BioAssay AID1259308 (NCATS, 2017).

Test: 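Genes whose loss raises luciferase production in HEK293 cells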 (primary screen)
System: human HEK293 embryonic kidney cells stably expressing firefly luciferase (HEK-CMV-Luc2-Hygro)
Knock-down reagent: single siRNA against human genes, 0.8 pmol siRNA per well
Duration: 72 h
Measured: 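Luciferase light (ONE-Glo) measured on one replicate plate set and viability (CellTiter-Glo) on the other, scaled to a negative control siRNA, with robust z-scores and luciferase per cell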
Scale: total luciferase, z-score: higher = more reporter protein produced
Active means: 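An siRNA counts as active if its total luciferase robust z-score exceeds 3; genes with two or more such siRNAs out of three were retested with fresh siRNAs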
Calls: active = raised luciferase; inactive = no rise
In all, the deposit lists about 59,000 reagents; shown is an unselected part. About 1,510 of all reagents (2.6%) were called active. 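Calls use total luciferase alone and ignore viability, so some active siRNAs may act by altering cell number.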 Reagents against one gene are numbered here. Further read-outs or replicates are left out here.

target gene,reagent no.,"total luciferase, z-score",outcome
HYPK (GeneID 25764),1,-0.366,inactive
HYPK (GeneID 25764),2,-1.58,inactive
HYPK (GeneID 25764),3,2.01,inactive
RBBP6 (GeneID 5930),1,-1.46,inactive
RBBP6 (GeneID 5930),2,0.28,inactive
RBBP6 (GeneID 5930),3,-1.69,inactive
CATSPERD (GeneID 257062),1,1.07,inactive
CATSPERD (GeneID 257062),2,0.274,inactive
CATSPERD (GeneID 257062),3,0.718,inactive
NUP50 (GeneID 10762),1,-2.3,inactive
NUP50 (GeneID 10762),2,-0.275,inactive
NUP50 (GeneID 10762),3,-1.41,inactive
SERTAD2 (GeneID 9792),1,-0.13,inactive
SERTAD2 (GeneID 9792),2,-0.652,inactive
SERTAD2 (GeneID 9792),3,0.353,inactive
KLHL4 (GeneID 56062),1,-0.388,inactive
KLHL4 (GeneID 56062),2,0.665,inactive
KLHL4 (GeneID 56062),3,0.391,inactive
MFAP4 (GeneID 4239),1,-1.04,inactive
MFAP4 (GeneID 4239),2,-1.37,inactive
MFAP4 (GeneID 4239),3,1.36,inactive
SLC51B (GeneID 123264),1,5.22,active
SLC51B (GeneID 123264),2,1.17,inactive
SLC51B (GeneID 123264),3,-0.265,inactive
SYCP3 (GeneID 50511),1,-0.8,inactive
SYCP3 (GeneID 50511),2,1.01,inactive
SYCP3 (GeneID 50511),3,0.492,inactive
ABCA2 (GeneID 20),1,-1.34,inactive
ABCA2 (GeneID 20),2,-0.812,inactive
ABCA2 (GeneID 20),3,-1.24,inactive
NKD2 (GeneID 85409),1,2.64,inactive
NKD2 (GeneID 85409),2,0.925,inactive
NKD2 (GeneID 85409),3,0.0265,inactive
POLD3 (GeneID 10714),1,-0.672,inactive
POLD3 (GeneID 10714),2,0.445,inactive
POLD3 (GeneID 10714),3,0.16,inactive

Sorted by “total luciferase, z-score” (ascending): some entries from above
target gene,reagent no.,"total luciferase, z-score",outcome
MFAP4 (GeneID 4239),1,-1.04,inactive
SERTAD2 (GeneID 9792),2,-0.652,inactive
KLHL4 (GeneID 56062),1,-0.388,inactive
SERTAD2 (GeneID 9792),3,0.353,inactive
KLHL4 (GeneID 56062),3,0.391,inactive
KLHL4 (GeneID 56062),2,0.665,inactive

The listing continues:
target gene,reagent no.,"total luciferase, z-score",outcome
LYZ (GeneID 4069),1,-2.12,inactive
LYZ (GeneID 4069),2,-0.229,inactive
LYZ (GeneID 4069),3,-0.295,inactive
MYOM1 (GeneID 8736),1,0.253,inactive
MYOM1 (GeneID 8736),2,0.104,inactive
MYOM1 (GeneID 8736),3,-0.751,inactive
KCNK18 (GeneID 338567),1,-0.661,inactive
KCNK18 (GeneID 338567),2,0.169,inactive
KCNK18 (GeneID 338567),3,-0.135,inactive
ZNF32 (GeneID 7580),1,-0.0318,inactive
ZNF32 (GeneID 7580),2,-0.481,inactive
ZNF32 (GeneID 7580),3,-2.75,inactive
LINC00471 (GeneID 151477),1,-1.4,inactive
LINC00471 (GeneID 151477),2,1.01,inactive
LINC00471 (GeneID 151477),3,-0.385,inactive
GJB5 (GeneID 2709),1,0.359,inactive
GJB5 (GeneID 2709),2,0.211,inactive
GJB5 (GeneID 2709),3,0.207,inactive
GLT6D1 (GeneID 360203),1,-1.66,inactive
GLT6D1 (GeneID 360203),2,-2.15,inactive
GLT6D1 (GeneID 360203),3,-0.397,inactive
ZNF831 (GeneID 128611),1,1.49,inactive
ZNF831 (GeneID 128611),2,-1.1,inactive
ZNF831 (GeneID 128611),3,0.165,inactive
USF2 (GeneID 7392),1,-1.65,inactive
USF2 (GeneID 7392),2,-0.593,inactive
USF2 (GeneID 7392),3,0.611,inactive
CNTN5 (GeneID 53942),1,0.513,inactive
CNTN5 (GeneID 53942),2,-0.0301,inactive
CNTN5 (GeneID 53942),3,-0.0593,inactive
ICA1L (GeneID 130026),1,4.7,active
ICA1L (GeneID 130026),2,3.61,active
ICA1L (GeneID 130026),3,1.01,inactive
SORT1 (GeneID 6272),1,0.434,inactive
SORT1 (GeneID 6272),2,-0.671,inactive
SORT1 (GeneID 6272),3,0.00487,inactive
RPL7P23 (GeneID 648000),1,-2.46,inactive
RPL7P23 (GeneID 648000),2,-3.38,inactive
RPL7P23 (GeneID 648000),3,-1.85,inactive
